Screen size: about 400,000 compounds; about 13,000 (3.2%) were called active. Inconclusive results, whose numbers are uncertain, are shown with a selection of clear calls. Calls come from the whole dose curve; as a rule, active = well fitted cell-killing curve with a large enough effect; inconclusive = small, poorly fitted or top-dose-only effect, or effect the other way; inactive = flat fitted curve, though single readings scatter. Where the call is inconclusive, the potency comes from a doubtful curve fit.
Experiment: qHTS assay for MDR1-selective chemotherapeutics: Primary screen using the drug-selected MDR subline cells KB-V1; note: nearly all actives have a fitted effect of over 60% in size
Details: KB-V1 MDR cells viability, CellTiter-Glo, 72 h; activity change, negative = cytotoxicity: at 46.1 µM (top of the series)
How it was run: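 In this primary screen, KB-V1 cells overexpressing P-gp are incubated with library compounds (lowest to highest concentration) for 72 h at 37 degrees C before a luminescent ATP viability read.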
% is set by controls: 0 for no effect and ±100 for the full control effect; potency is the fitted concentration of half-maximal effect.

| Compound | Potency | activity change, negative = cytotoxicity |
| --- | --- | --- |
| Cc1sc2nc(-c3cccnc3)[nH]c(=O)c2c1-c1ccccc1 | inactive |  |
| CC(C)(C)NC(=O)/C(=C\C=C\c1ccccc1)NC(=O)c1ccc([N+](=O)[O-])cc1 | inconclusive: 7.31 µM [cytotoxic, partial curve] |  |
| CN1CCN(C(CNC(=O)c2ccc(F)cc2)c2ccc3c(c2)OCO3)CC1 (stereo not drawn) | inconclusive: 18.4 µM [rising, single point] |  |
| Cc1cc(C)c(Cn2c(=O)n(CCC(=O)NCCc3ccccc3)c(=O)c3ccccc32)c(C)c1 |  | inconclusive: 36.5% |
| CCOc1ccccc1C(=O)NC(C(=O)NCc1ccc(F)cc1)C(C)C (stereo not drawn) | inconclusive: 13 µM [cytotoxic, partial curve] |  |
| COc1cc(NC(=O)C/C(C)=N/NC(=O)Cc2ccc(Cl)cc2)c(OC)cc1Cl | inconclusive: 13 µM [rising, partial curve] |  |
| Cc1cccc(Cn2ccc(NC(=O)c3ccc4c(c3)OCO4)n2)c1 | active: 18.4 µM |  |
| CCCCC(O)(c1ccc(F)cc1)C(CN1CCOCC1)c1ccc(Cl)cc1 (stereo not drawn) | active: 8.2 µM |  |
| O=C(O)c1sc(Nc2ccccc2)nc1-c1ccccc1 | inconclusive: 7.31 µM [rising, partial curve, poor fit] |  |
| COC(=O)C1CCN(C(=O)Cn2nnc(-c3ccccc3)n2)CC1 | inconclusive: 0.731 µM [rising, full curve, poor fit] |  |
| CCCCN(C1CCS(=O)(=O)C1)S(=O)(=O)c1cc(C)ccc1C (stereo not drawn) | inconclusive: 10.3 µM [cytotoxic, partial curve, poor fit] |  |
| CCOC(=O)Cn1c(=O)oc2cc(S(=O)(=O)N3CCN(c4cccc(Cl)c4)CC3)ccc21 | inactive |  |
| Cc1ccc(F)c(S(=O)(=O)NC(=O)C2(C)CCN2C(=O)c2ccc(C(F)(F)F)nc2C)c1 (stereo not drawn) | inactive |  |
| CC(=O)c1cccc(NC(=O)C2(C)Cc3c(-c4ccccc4)ccnc3O2)c1 (stereo not drawn) | inactive |  |
| CCCCCN1N=C(C)CC1=O | inactive |  |
| COc1ccc(S(=O)(=O)N(C)C)cc1NC(=O)[C@H](Cc1ccccc1)N1C(=O)c2ccccc2C1=O | inconclusive: 0.0073 µM [cytotoxic, full curve] |  |
| Cc1cc(Cl)ccc1OCCCC(=O)N1CCN(C(=O)c2ccco2)CC1 | inconclusive: 23.1 µM [cytotoxic, partial curve, poor fit] |  |
| O=C(NCC(F)(F)F)C1C(=O)Nc2ccccc2C(=O)N1Cc1ccccc1 (stereo not drawn) | inactive |  |
| O=C(COc1ccc(F)cc1Br)NCc1nnc2ccccn12 | inconclusive: 25.9 µM [cytotoxic, single point] |  |
| CCOc1ccc(CCNC(=O)c2ccc3c(c2)N(Cc2ccc(F)cc2)CCS3)cc1 | inconclusive: 2.59 µM [cytotoxic, partial curve, poor fit] |  |
| CCCc1nnc(NC(=O)CCC(=O)NC2CCCCC2)s1 | inconclusive: 32.6 µM [rising, partial curve, poor fit] |  |
| CC(Oc1ccc(F)cc1)C(=O)Oc1ccc(N(C)S(=O)(=O)c2ccccc2)cc1 (stereo not drawn) | inconclusive: 29.1 µM [rising, single point] |  |
| CC(OC(=O)c1ccc(O)cc1)C(=O)Nc1nc(-c2ccccc2)cs1 (stereo not drawn) | inconclusive: 23.1 µM [cytotoxic, single point] |  |

| Compound | Potency | activity change, negative = cytotoxicity |
| --- | --- | --- |
| COC(=O)c1sccc1S(=O)(=O)N(CC(=O)Nc1cc(C)ccc1C)c1ccc(C)c(C)c1 | inconclusive: 10.3 µM [cytotoxic, partial curve] |  |
| CS(=O)(=O)N1CCN(c2ccccc2NC(=O)c2cc3ccccc3o2)CC1 | inconclusive: 20.6 µM [cytotoxic, partial curve, poor fit] |  |
| COc1ccc(Cl)cc1NC(=O)CN(C)C(=O)Cn1cnc2c1c(=O)n(C)c(=O)n2C | inconclusive: 16.4 µM [rising, partial curve] |  |
| COc1ccc(C(=O)Nc2nnc(-c3ccccc3)o2)cc1OC | inconclusive: 18.4 µM [cytotoxic, single point] |  |
| COCCN1CCN(C(=O)c2ccc3nc(Cc4ccc(OC)c(OC)c4)oc3c2)CC1 | inconclusive: 9.2 µM [cytotoxic, partial curve] |  |
| Cc1noc(C)c1COc1ccccc1C(=O)N1CCN(S(=O)(=O)c2ccccc2C#N)CC1 | active: 14.6 µM |  |
| Cc1ccc(CS/C(Nc2ccccc2C)=C(\C#N)C(=O)NCc2ccco2)c(C)c1 | active: 14.6 µM |  |
| Cc1ccc(CNC(=O)c2ccc3c(c2)NC(=O)C(N2CCOCC2)S3)cc1 (stereo not drawn) | inactive |  |
| CCC(C)[C@H](NC(=O)N1CC(=O)Nc2ccccc21)C(=O)Nc1nccs1 (stereo partly drawn) | inconclusive: 23.1 µM [rising, single point] |  |
| CN1CCN(S(=O)(=O)c2cccc(C(=O)N(Cc3nnc(-c4ccccc4Cl)o3)C3CC3)c2)CC1 | inconclusive: 18.4 µM [cytotoxic, single point] |  |
| Cc1cccc(N2CCN(C(=O)c3ccc4c(c3)OCCO4)CC2)c1C | inconclusive: 16.4 µM [cytotoxic, partial curve] |  |
| O=S(=O)(c1ccc2nc(-c3ccccc3)[nH]c2c1)N1CCN(c2ccc(Cl)cc2)CC1 | inconclusive: 18.4 µM [cytotoxic, partial curve, poor fit] |  |
| CCOc1ncccc1C(=O)NCCc1ccc(OC)cc1 | inconclusive: 5.17 µM [cytotoxic, full curve] |  |
| CC(Sc1ncc(C(F)(F)F)cc1Cl)C(=O)NCC1CCCO1 (stereo not drawn) | inconclusive: 13 µM [cytotoxic, partial curve] |  |
| Cc1occc1C(=O)N/N=C/c1c(O)ccc2ccccc12 | inconclusive: 1.16 µM [cytotoxic, full curve] |  |
| CCOCCCNCc1ccc(OCc2ccc(F)cc2)c(OC)c1 | inconclusive: 11.6 µM [cytotoxic, partial curve] |  |
| COc1ccc(N2C(=O)C(F)(F)C2c2ccc(C)cc2)cc1OC (stereo not drawn) |  | inconclusive: 34.6% |
| CC(C)(C)c1ccc(OCCCNC2CCCC2)cc1 | inconclusive: 29.1 µM [cytotoxic, single point] |  |
| Cc1noc(C)c1NC(=O)Nc1ccc2c(c1)C(=O)N([C@H](C)CO)C[C@H](C)[C@@H](CN(C)C(=O)NC1CCCCC1)O2 | inactive |  |
| CCCC(=O)Nc1cc(C)cn(Cc2c(F)cccc2Cl)c1=O | inactive |  |
| NC(=O)CC(NC(=O)Cc1ccc(Br)cc1)c1ccc(NC2CCCCCC2)c([N+](=O)[O-])c1 (stereo not drawn) | inconclusive: 29.1 µM [rising, single point] |  |
| CN(CC1CCOCC1)C(=O)CC1C(=O)NCCN1Cc1ccccc1F (stereo not drawn) | inconclusive: 2.91 µM [cytotoxic, partial curve, poor fit] |  |
| CCn1c(CN2CCN(c3cccc(C)c3C)CC2)n[nH]c1=S | inconclusive: 29.1 µM [cytotoxic, single point] |  |

| Compound | Potency | activity change, negative = cytotoxicity |
| --- | --- | --- |
| COc1ccc(S(=O)(=O)N2CCOCC2)cc1NC(=O)c1ccccc1C | inactive |  |
| CCN(CC)C(=O)CSc1nc2c(sc(=S)n2-c2ccccc2)c(=O)[nH]1 | inconclusive: 23.1 µM [rising, single point] |  |
| O=S(=O)(c1cccc(-c2n[nH]c(=S)n2C2CCCC2)c1)N1CCOCC1 | inconclusive: 29.1 µM [cytotoxic, single point] |  |
| O=C(CC1Sc2ncnn2C1=O)Nc1ccccc1 (stereo not drawn) | inactive |  |
| O=C(Nc1ccccc1-c1ccccc1NC(=O)c1ccco1)c1ccco1 | inactive |  |
| Cc1ncsc1CCOC(=O)c1cccnc1 | inconclusive: 0.103 µM [rising, full curve] |  |
| CCCCNC(=S)NNC(=O)c1cc(-c2ccncc2)nc2ccccc12 | inconclusive: 20.6 µM [cytotoxic, single point] |  |
| Cc1ccccc1Cn1nc(C)c(NC(=O)c2noc3c2CCc2ccccc2-3)c1C | inconclusive: 4.61 µM [cytotoxic, full curve, poor fit] |  |
| COC(=O)c1ccc(OCc2nn[nH]n2)cc1 | inactive |  |
| Cc1ccc(S(=O)(=O)N(C)C)cc1NC(=O)COC(=O)c1cccs1 | inconclusive: 18.4 µM [rising, single point] |  |
| O=C(Nc1ccc(S(=O)(=O)N2CCCCC2)cc1)c1ccc(CN2CCc3ccccc3C2)cc1 | inconclusive: 1.46 µM [cytotoxic, full curve] |  |
| O=C(O)CCC1(CCC(=O)O)c2ccccc2-c2ccccc21 | inconclusive: 29.1 µM [rising, single point] |  |
| O=S(=O)(Nc1ccc(Cl)cn1)c1ccc(Cl)cc1 |  | inconclusive: -1.4% |
| CCOC(=O)CNC(=O)c1cc2c(=O)oc3ccccc3c2s1 | inactive |  |
| O=C(N/N=C/c1ccc([N+](=O)[O-])o1)C1CC1 | inconclusive: 18.4 µM [cytotoxic, single point] |  |
| Cc1cc(C(=O)COC(=O)C23CC4CC(CC(O)(C4)C2)C3)c(C)n1C | inactive |  |
| CCCNC(=O)COC(=O)/C(C#N)=C/c1cc(C)n(CCC)c1C | inconclusive: 7.31 µM [cytotoxic, partial curve] |  |
| CCCCn1nc2cc(C(=O)NCc3cc(C(F)(F)F)cc(C(F)(F)F)c3)ccc2c1OCC | inactive |  |
| O=C(C[C@H]1C[C@H]2c3cc(NC(=O)CC4CC4)ccc3O[C@H]2[C@H](CO)O1)NCc1ccccc1F | inconclusive: 29.1 µM [rising, single point] |  |
| COc1ccc2[nH]c(=O)c(CN(C3CCCCC3)C(c3nnnn3Cc3ccco3)C(C)C)cc2c1 (stereo not drawn) | active: 11.6 µM |  |
| O=C(Nc1ccccc1C(=O)OCc1cc(=O)n2nc(C3CC3)sc2n1)c1ccc(Cl)cc1 | inconclusive: 25.9 µM [rising, partial curve] |  |
| Cc1nn(-c2ccccc2)c2c1C1(C(=O)N(C(C)C)c3ccccc31)C(C#N)=C(N)O2 (stereo not drawn) | inconclusive: 20.6 µM [rising, single point] |  |

Molecules shown so far that have a COOH group (two):

| Compound | Potency | activity change, negative = cytotoxicity |
| --- | --- | --- |
| O=C(O)c1sc(Nc2ccccc2)nc1-c1ccccc1 | inconclusive: 7.31 µM [rising, partial curve, poor fit] |  |
| O=C(O)CCC1(CCC(=O)O)c2ccccc2-c2ccccc21 | inconclusive: 29.1 µM [rising, single point] |  |

Quoted at random: two records from the list.

| Compound | Potency | activity change, negative = cytotoxicity |
| --- | --- | --- |
| COc1ccc2[nH]c(=O)c(CN(C3CCCCC3)C(c3nnnn3Cc3ccco3)C(C)C)cc2c1 (stereo not drawn) | active: 11.6 µM |  |
| O=C(C[C@H]1C[C@H]2c3cc(NC(=O)CC4CC4)ccc3O[C@H]2[C@H](CO)O1)NCc1ccccc1F | inconclusive: 29.1 µM [rising, single point] |  |
